Results from the supplement of paper PMC12889115.
Some of the results follow. These are raw signals, not scaled to a control.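 First-pass screen: polymyxin B was added at a level that permeabilizes the Salmonella outer membrane while sparing the inner membrane. DMSO wells, with and without polymyxin B, defined maximum growth. Because plates differed from one another, each plate's data were ranked separately and the compounds with the lowest OD600 were carried forward as hits.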

Test system: Salmonella enterica serovar Typhimurium SL1344
Assay: bacterial growth OD600 after 18 h with compound and polymyxin B; higher = more bacterial growth (less inhibition)
Details: 50 µM, Mueller-Hinton broth

Compound | bacterial growth OD600 (polymyxin B 1 µg/mL) | bacterial growth OD600 (polymyxin B 0.75 µg/mL)
COc1ccccc1CC(=O)NCc1cccnc1-n1cnc2ccccc21 | 0.834 | –
O=C(c1ccncc1)N1CCC(C2CCN(Cc3cccnc3)CC2)C1 (stereo unspecified) | 0.903 | –
O=C1CCC(CCC(=O)N2CCCN(C(=O)c3ccco3)CC2)(Cc2ccc3ccccc3c2)N1 (stereo unspecified) | – | 0.895
CCn1nc(C)c(CN2CCC(Oc3ccccc3C(=O)N3CCCCC3)CC2)c1C | 0.947 | –
CC(C)CC(O)C1CCN(Cc2nc(-c3ccccn3)no2)CC1 (stereo unspecified) | 1.03 | –
CN(C(=O)c1cc(-c2cccn2C)n[nH]1)C1CCCN(CCc2ccccc2)C1 (stereo unspecified) | 0.947 | –
O=C(NCc1ccccn1)c1coc(COc2cccc(F)c2)n1 | 0.905 | –
Cc1ccccc1OCC1CCCN(Cc2nc(Cc3ccccc3F)no2)C1 (stereo unspecified) | 0.623 | –
COc1cc(C)ccc1OCc1nc(C(=O)N2CCCCO2)co1 | 0.977 | –
CSCCC(=O)N1CCC(C2(c3ccccn3)NC(=O)N(CCc3cccs3)C2=O)CC1 (stereo unspecified) | – | 0.895
COCCCC1CCN(C(=O)c2cn(CCc3ccccc3)nn2)CC1 | 0.873 | –
O=C(CC1C(=O)NCCN1Cc1c(F)cccc1Cl)NCC(F)(F)F (stereo unspecified) | – | 0.834
C=CC[C@@H]1CC=C[C@@H](C)N1C(=O)CCc1nnc(Cc2cc(OC)ccc2OC)o1 | – | 0.819
CC(C)Cc1cn[nH]c1C1CCCN(Cc2cc3ccccc3[nH]2)C1 (stereo unspecified) | – | 0.658
COCCCN1C(=O)CC(CC(=O)N(CCO)Cc2ccccc2)(c2ccccc2OC)C1=O (stereo unspecified) | – | 0.796
CN(c1ncccc1CNCc1ccc2c(c1)OCCO2)C1CCCCC1 | 1.06 | –

Compound | bacterial growth OD600 (polymyxin B 1 µg/mL) | bacterial growth OD600 (polymyxin B 0.75 µg/mL)
COc1cccc(CN(C)C(=O)c2ccc3nc(C4CCCCC4)oc3c2)c1 | 0.807 | –
CSc1ccc(CC2(CCC(=O)NCc3c[nH]nc3-c3ccc(Cl)cc3)CCC(=O)N2)cc1 (stereo unspecified) | – | 0.818
Cc1csc(C(C)N(C)C(=O)c2cc(Cn3nc(C)cc3C)[nH]n2)n1 (stereo unspecified) | – | 0.789
CC(C)(CO)CN1CCCC(C(=O)Nc2cccc(-c3ccc(F)cc3)c2)C1 (stereo unspecified) | 0.842 | –
CCOC(=O)C1(CC2CC2)CCN(Cc2ccccc2Cl)CC1 | 0.792 | –
CCOC(=O)CNC(=O)N1CCC2(CCCN(CC3CC3)C2=O)C1 (stereo unspecified) | 0.965 | –
O=C(CCC1CCN(C(=O)CCc2cnccn2)CC1)NCc1cccc(Cl)c1 | 0.932 | –
O=C(CC1C(=O)NCCN1Cc1ccccc1)NC1C2CC3CC(C2)CC1C3 (stereo unspecified) | 0.831 | –
Cc1ccc(C(=O)N2CCC3(CCCN(Cc4ccc(F)cc4)C3=O)C2)cc1 (stereo unspecified) | 0.844 | –
CN(C(=O)c1csc2nc(-c3ccccc3)cn12)C1CCCCC1 | 0.885 | –
O=C(CCC1CCN(C(=O)CCc2cccs2)CC1)NCC1CCCO1 (stereo unspecified) | 0.951 | –
COCCN1C(=O)CC(CC(=O)N2CCC(OCc3ccccc3)CC2)(c2cccc(OC)c2)C1=O (stereo unspecified) | – | 0.914
C[C@@H]1CN(C(=O)C2(N3C[C@@H](C)O[C@@H](C)C3)Cc3ccccc3C2)C[C@H](C)O1 | 0.018 | –
COc1ccc(-n2ncc(C(C)NCc3cccc(SC)c3)c2C)cc1 (stereo unspecified) | 1.06 | –
O=C(NCCC(c1ccccc1)c1ccccc1)C1CC12CCN(C(=O)Cc1ccccc1F)CC2 (stereo unspecified) | – | 0.011

Looked up by structure from above, 2 records:
Compound | bacterial growth OD600 (polymyxin B 1 µg/mL) | bacterial growth OD600 (polymyxin B 0.75 µg/mL)
O=C1CCC(CCC(=O)N2CCCN(C(=O)c3ccco3)CC2)(Cc2ccc3ccccc3c2)N1 (stereo unspecified) | – | 0.895
CN(C(=O)c1csc2nc(-c3ccccc3)cn12)C1CCCCC1 | 0.885 | –
